Measurements as given in paper PMC3338482.
These are yes or no findings as the source states them, for the method shown. Binding seen in cells or lysates may run through a third protein.

Chains of the proteins cited; added tags and fusions are not shown.
UniProt Q04206: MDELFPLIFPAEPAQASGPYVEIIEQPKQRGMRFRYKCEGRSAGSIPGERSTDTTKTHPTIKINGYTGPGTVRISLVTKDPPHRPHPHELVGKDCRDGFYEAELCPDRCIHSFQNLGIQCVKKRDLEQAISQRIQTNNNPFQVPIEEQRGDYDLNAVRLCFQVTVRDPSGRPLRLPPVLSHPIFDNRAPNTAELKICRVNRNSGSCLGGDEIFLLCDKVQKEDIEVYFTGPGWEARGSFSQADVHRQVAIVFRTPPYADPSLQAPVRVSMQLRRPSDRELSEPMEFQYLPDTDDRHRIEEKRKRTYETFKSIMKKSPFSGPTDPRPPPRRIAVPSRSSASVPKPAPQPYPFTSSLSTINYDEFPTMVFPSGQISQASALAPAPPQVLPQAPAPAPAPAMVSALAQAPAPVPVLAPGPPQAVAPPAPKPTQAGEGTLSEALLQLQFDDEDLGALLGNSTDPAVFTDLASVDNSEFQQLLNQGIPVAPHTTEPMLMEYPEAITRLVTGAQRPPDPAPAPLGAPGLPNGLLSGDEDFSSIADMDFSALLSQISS

Target: NF-κB p65 subunit (human (endogenous in BEAS-2B)) (UniProt Q04206)
Assay: co-IP; Total cell proteins of pCC10-transfected BEAS-2B cells stimulated with 10 ng/mL IL-1β for 4 hours; immunoprecipitated with rabbit anti-human p65 antibody (ProFound Mammalian Co-Immunoprecipitation Kit); blotted with anti-p65 and anti-CC10; rabbit normal serum as negative control

B1: Clara cell 10-kDa protein (CC10) (protein, UniProt P11684 22-91)
chain: EICPSFQRVIETLLMDTPSSYEAAMELFSPDQDMREAGAQLKKLVDTLPQKPRESIIKLMEKIAQSSLCN
With B1 the binding was “no binding”.
